Measured values reported in paper PMC7853042.
No constants are given. Whether binding was seen depends on the method and setting. In cells and extracts the contact can be indirect. Some results given as binding are weak or reduced against the parent protein; the word gives no strength. Sequences can lack the tags named with a protein.

The chains behind the UniProt entries cited, without tags or fusion partners.
UniProt Q04206: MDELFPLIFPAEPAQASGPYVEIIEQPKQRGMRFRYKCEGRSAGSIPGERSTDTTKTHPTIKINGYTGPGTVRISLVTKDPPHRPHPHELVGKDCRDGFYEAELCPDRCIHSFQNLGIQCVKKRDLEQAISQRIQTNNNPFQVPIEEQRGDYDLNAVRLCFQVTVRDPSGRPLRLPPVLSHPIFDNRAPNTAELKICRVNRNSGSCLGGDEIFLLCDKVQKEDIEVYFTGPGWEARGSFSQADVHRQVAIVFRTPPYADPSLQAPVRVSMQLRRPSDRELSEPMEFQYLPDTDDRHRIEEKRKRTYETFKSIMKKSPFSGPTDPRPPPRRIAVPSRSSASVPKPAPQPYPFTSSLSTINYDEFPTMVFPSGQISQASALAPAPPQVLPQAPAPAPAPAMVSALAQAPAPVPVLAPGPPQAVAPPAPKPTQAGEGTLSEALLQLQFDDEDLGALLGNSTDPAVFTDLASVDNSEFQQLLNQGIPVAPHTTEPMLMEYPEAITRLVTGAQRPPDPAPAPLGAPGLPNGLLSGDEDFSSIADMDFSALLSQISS

T1: Coil domain of PDCD11 (Flag-Coil) (human) (UniProt Q14690)
T1 sequence: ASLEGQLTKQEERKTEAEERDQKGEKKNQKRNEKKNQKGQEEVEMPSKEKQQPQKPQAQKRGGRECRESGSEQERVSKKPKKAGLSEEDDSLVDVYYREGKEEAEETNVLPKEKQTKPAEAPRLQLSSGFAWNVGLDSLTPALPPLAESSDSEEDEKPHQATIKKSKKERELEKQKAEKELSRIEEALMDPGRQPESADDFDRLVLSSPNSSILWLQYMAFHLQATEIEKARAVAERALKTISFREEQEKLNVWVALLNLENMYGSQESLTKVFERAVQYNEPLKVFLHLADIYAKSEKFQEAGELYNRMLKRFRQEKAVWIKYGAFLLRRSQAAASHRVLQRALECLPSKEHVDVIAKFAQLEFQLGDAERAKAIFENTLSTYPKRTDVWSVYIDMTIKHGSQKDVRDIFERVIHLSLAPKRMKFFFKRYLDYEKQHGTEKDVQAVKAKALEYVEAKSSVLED


Target: T1, Coil domain of PDCD11 (Flag-Coil) (human)
Experiment: co-IP; co-transfected cells lysed 48 h after transfection in RIPA buffer (50 mM Tris, 150 mM NaCl, 10% glycerol, 5 mM MgCl2, 0.5% NP40, protease inhibitor); anti-Flag agarose, 4 °C overnight; western blot (anti-GFP, anti-Flag)

| binding | Molecule |
| --- | --- |
| binds | P65-GFP (from UniProt Q04206 1-551) |
| binds | c-Rel-GFP (protein, UniProt Q04864 1-619) MASGAYNPYIEIIEQPRQRGMRFRYKCEGRSAGSIPGEHSTDNNRTYPSIQIMNYYGKGKVRITLVTKNDPYKPHPHDLVGKDCRDGYYEAEFGQERRPLFFQNLGIRCVKKKEVKEAIITRIKAGINPFNVPEKQLNDIEDCDLNVVRLCFQVFLPDEHGNLTTALPPVVSNPIYDNRAPNTAELRICRVNKNCGSVRGGDEIFLLCDKVQKDDIEVRFVLNDWEAKGIFSQADVHRQVAIVFKTPPYCKAITEPVTVKMQLRRPSDQEVSESMDFRYLPDEKDTYGNKAKKQKTTLLFQKLCQDHVETGFRHVDQDGLELLTSGDPPTLASQSAGITVNFPERPRPGLLGSIGEGRYFKKEPNLFSHDAVVREMPTGVSSQAESYYPSPGPISSGLSHHASMAPLPSSSWSSVAHPTPRSGNTNPLSSFSTRTLPSNSQGIPPFLRIPVGNDLNASNACIYNNADDIVGMEASSMPSADLYGISDPNMLSNCSVNMMTTSSDSMGETDNPRLLSMNLENPSCNSVLDPRDLRQLHQMSSSSMSAGANSNTTVFVSQSDAFEGSDFSCADNSMINESGPSNSTNPNSHGFVQDSQYSGIGSMQNEQLSDSFPYEFFQV |
